These are yes or no findings as the source states them, for the method shown. Some binding calls cover weakened binding; strength is not graded here.
What was measured:
[1] = biological target: monkey CD3 on HSC-F monkey T cells (cynomolgus monkey) (UniProt Q95LI5); assay: competition with FN18-FITC on HSC-F cells, flow cytometry
[2] = biological target: monkey CD3 on HSC-F monkey T cells (cynomolgus monkey) (UniProt Q95LI5); assay: competition with FITC-labeled FN18 tracer (5x10^-9 M) for binding to HSC-F monkey T cells, flow cytometry, 4 C
[3] = biological target: monkey CD3 on HSC-F monkey T cells (cynomolgus monkey) (UniProt Q95LI5); assay: competition with FITC-labeled FN18 on HSC-F cells, flow cytometry (legend of FIG. 13)

Chains of the proteins cited; added tags and fusions are not shown. Residues count along the entry.
UniProt Q95LI5, residues 22-198: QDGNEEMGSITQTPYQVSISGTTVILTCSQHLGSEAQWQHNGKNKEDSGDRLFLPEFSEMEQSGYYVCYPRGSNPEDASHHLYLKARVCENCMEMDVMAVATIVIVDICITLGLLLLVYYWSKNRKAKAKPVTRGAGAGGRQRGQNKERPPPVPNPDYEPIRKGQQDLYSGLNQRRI

Measured: binding

B1: biscFv(C207) (other)
chain: DFVMSQSPSSLAVSVGERVTMSCKSSQSLLYFSNRKNYLAWYQQKPGQSPKLLINWASTRESGVPDRFTGSGSRTDFTLTISSVKAEDLAVYFCQQFYSYPPTFGGGTKLEIKGGGGSGGGGSGGGGSQVQLQQSEAELARPGASVKMSCKASGYTFTDYTIHWLRQKPGQGLDWIGYFNPSSGSTEYNRKFKDRTILTADRSSTTVYMQLSSLTSEDSAVYYCARKGEKLLGNRYWYFDVWGAGTSVTVSSGGGGSGGGGSGGGGSDFVMSQSPSSLAVSVGERVTMSCKSSQSLLYFSNRKNYLAWYQQKPGQSPKLLINWASTRESGVPDRFTGSGSRTDFTLTISSVKAEDLAVYFCQQFYSYPPTFGGGTKLEIKGGGGSGGGGSGGGGSQVQLQQSEAELARPGASVKMSCKASGYTFTDYTIHWLRQKPGQGLDWIGYFNPSSGSTEYNRKFKDRTILTADRSSTTVYMQLSSLTSEDSAVYYCARKGEKLLGNRYWYFDVWGAGTSVTVSS
binds: [1] | [2] | [3]

B2: scFv(C207) (scFv)
scFv: DFVMSQSPSSLAVSVGERVTMSCKSSQSLLYFSNRKNYLAWYQQKPGQSPKLLINWASTRESGVPDRFTGSGSRTDFTLTISSVKAEDLAVYFCQQFYSYPPTFGGGTKLEIKGGGGSGGGGSGGGGSQVQLQQSEAELARPGASVKMSCKASGYTFTDYTIHWLRQKPGQGLDWIGYFNPSSGSTEYNRKFKDRTILTADRSSTTVYMQLSSLTSEDSAVYYCARKGEKLLGNRYWYFDVWGAGTSVTVSS
binds: [1] | [2] | [3]

B3: Db(C207) (other)
chain: DFVMSQSPSSLAVSVGERVTMSCKSSQSLLYFSNRKNYLAWYQQKPGQSPKLLINWASTRESGVPDRFTGSGSRTDFTLTISSVKAEDLAVYFCQQFYSYPPTFGGGTKLEIKGGGGSQVQLQQSEAELARPGASVKMSCKASGYTFTDYTIHWLRQKPGQGLDWIGYFNPSSGSTEYNRKFKDRTILTADRSSTTVYMQLSSLTSEDSAVYYCARKGEKLLGNRYWYFDVWGAGTSVTVSS
notes: also called diabody of C207; diabody (C207)
binds: [1] | [2] | [3]

Source: patent US20110189209A1 (GOVERNMENT OF THE UNITED STATES OF AMERICA AS REPRESENTED …, published 2011)
